Laboratory results taken from the supplement of paper PMC6078165.

Tested on: MDAMB468
Assay: relative JC-1 red fluorescence (viability) vs pre-drug, coculture with fibroblast (fraction); higher = more viable cancer cells
Experimental: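 JC-1 labelled TNBC cells cocultured 1:1 (1,500 cells each) with CellTrace Violet stained primary or stromal fibroblasts in 384-well plates in FluoroBrite medium, treated with one of 42 anticancer drugs at 0.1, 1, 10 or 100 uM. JC-1 red fluorescence (mitochondrial integrity in cancer cells only) was read by plate reader every 8 h for 72 h. Values are normalised to each well's pre-drug value. The stock of one drug was tenfold lower, so its dose labels may be too high.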

O=c1[nH]cc(F)c(=O)[nH]1 [Fluorouracil]
relative JC-1 red fluorescence
Details	8 h	16 h	24 h	32 h	40 h	48 h	56 h	64 h	72 h
10 µM, coculture fibroblast: C12385	0.8767 ± 0.0081	0.79 ± 0.03	0.755 ± 0.047	0.702 ± 0.058	0.663 ± 0.064	0.649 ± 0.069	0.613 ± 0.068	0.585 ± 0.074	0.575 ± 0.074
10 µM, coculture fibroblast: H6013	0.9132 ± 0.0046	0.8267 ± 0.0023	0.8391 ± 0.001	0.852 ± 0.017	0.858 ± 0.015	0.895 ± 0.014	0.878 ± 0.018	0.89 ± 0.01	0.839 ± 0.015
10 µM, coculture fibroblast: H6019	0.862 ± 0.014	0.827 ± 0.0091	0.8122 ± 0.005	0.7748 ± 0.00094	0.7446 ± 0.0036	0.738 ± 0.011	0.7 ± 0.018	0.683 ± 0.017	0.667 ± 0.018
10 µM, coculture fibroblast: H6076	0.93853 ± 0.00054	0.9535 ± 0.0044	0.918 ± 0.033	0.922 ± 0.032	0.848 ± 0.053	0.843 ± 0.057	0.792 ± 0.058	0.781 ± 0.075	0.828 ± 0.058
10 µM, coculture fibroblast: H6231	0.831 ± 0.025	0.953 ± 0.044	0.883 ± 0.022	0.87 ± 0.03	0.816 ± 0.026	0.785 ± 0.025	0.733 ± 0.053	0.714 ± 0.054	0.701 ± 0.058
10 µM, coculture fibroblast: HADF	0.888 ± 0.023	0.8291 ± 0.002	0.772 ± 0.014	0.757 ± 0.027	0.71 ± 0.031	0.697 ± 0.032	0.655 ± 0.039	0.642 ± 0.038	0.601 ± 0.035
10 µM, coculture fibroblast: HCFa	0.8872 ± 0.008	0.785 ± 0.014	0.7451 ± 0.0074	0.7156 ± 0.0017	0.653 ± 0.0083	0.643 ± 0.011	0.599 ± 0.011	0.57 ± 0.011	0.533 ± 0.0057
10 µM, coculture fibroblast: HCPF	0.888 ± 0.019	0.9887 ± 0.0089	0.905 ± 0.012	0.8942 ± 0.0029	0.8379 ± 0.0055	0.7983 ± 0.0044	0.74731 ± 0.00037	0.7244 ± 0.0067	0.6994 ± 0.0027
10 µM, coculture fibroblast: HHSteC	0.917 ± 0.02	0.8621 ± 0.0053	0.83561 ± 0.00016	0.808 ± 0.0094	0.778 ± 0.021	0.782 ± 0.031	0.718 ± 0.041	0.706 ± 0.041	0.664 ± 0.04
10 µM, coculture fibroblast: HMF	0.873 ± 0.0092	0.836 ± 0.14	0.93 ± 0.052	0.9 ± 0.06	0.84 ± 0.073	0.818 ± 0.065	0.779 ± 0.061	0.759 ± 0.058	0.738 ± 0.059
10 µM, coculture fibroblast: HPFa	0.9353 ± 0.005	0.8663 ± 0.0064	0.83 ± 0.013	0.7694 ± 0.0026	0.72453 ± 2.9e-05	0.7218 ± 0.002	0.6677 ± 0.0019	0.6516 ± 0.0053	0.5944 ± 0.0051
10 µM, coculture fibroblast: HUF	0.929 ± 0.02	0.859 ± 0.06	0.802 ± 0.076	0.753 ± 0.095	0.699 ± 0.1	0.674 ± 0.1	0.629 ± 0.11	0.622 ± 0.12	0.607 ± 0.12
10 µM, coculture fibroblast: Hs5	0.75 ± 0.043	0.834 ± 0.12	0.956 ± 0.043	0.946 ± 0.048	0.875 ± 0.062	0.853 ± 0.067	0.798 ± 0.09	0.773 ± 0.092	0.793 ± 0.1
10 µM, coculture fibroblast: Hs27A	0.859 ± 0.0095	0.794 ± 0.018	0.771 ± 0.023	0.774 ± 0.014	0.714 ± 0.0077	0.702 ± 0.0057	0.6599 ± 0.00081	0.6379 ± 0.0043	0.5883 ± 0.0031
10 µM, coculture fibroblast: Hs343T	0.9029 ± 0.0032	0.9854 ± 0.0036	0.89238 ± 0.00072	0.854 ± 0.012	0.7757 ± 0.0053	0.7482 ± 0.0033	0.693 ± 0.012	0.674 ± 0.023	0.639 ± 0.036
10 µM, coculture fibroblast: WS1	0.891 ± 0.029	0.788 ± 0.082	0.744 ± 0.084	0.687 ± 0.11	0.652 ± 0.12	0.622 ± 0.12	0.597 ± 0.12	0.564 ± 0.12	0.557 ± 0.12
100 µM, coculture fibroblast: C12385	0.882 ± 0.021	0.822 ± 0.018	0.816 ± 0.04	0.764 ± 0.052	0.737 ± 0.059	0.73 ± 0.068	0.686 ± 0.079	0.657 ± 0.084	0.64 ± 0.087
100 µM, coculture fibroblast: H6013	0.8455 ± 0.0027	0.847 ± 0.019	0.797 ± 0.016	0.774 ± 0.011	0.74 ± 0.0064	0.7376 ± 0.0046	0.6979 ± 0.0035	0.68 ± 0.014	0.617 ± 0.02
100 µM, coculture fibroblast: H6019	0.829 ± 0.02	0.821 ± 0.0099	0.8001 ± 0.0015	0.7498 ± 0.0027	0.71316 ± 0.00055	0.6952 ± 0.0013	0.647 ± 0.0068	0.6139 ± 0.0014	0.5855 ± 0.0023
100 µM, coculture fibroblast: H6076	0.923 ± 0.11	0.912 ± 0.12	0.864 ± 0.17	0.901 ± 0.13	0.9 ± 0.028	0.834 ± 0.12	0.811 ± 0.11	0.83 ± 0.06	0.81 ± 0.16
100 µM, coculture fibroblast: H6231	0.836 ± 0.019	0.923 ± 0.0095	0.873 ± 0.016	0.86 ± 0.049	0.798 ± 0.034	0.785 ± 0.057	0.743 ± 0.067	0.723 ± 0.079	0.722 ± 0.084
100 µM, coculture fibroblast: HADF	0.893 ± 0.049	0.836 ± 0.019	0.774 ± 0.024	0.772 ± 0.031	0.727 ± 0.048	0.715 ± 0.063	0.674 ± 0.065	0.662 ± 0.068	0.618 ± 0.06
100 µM, coculture fibroblast: HCFa	0.845 ± 0.017	0.842 ± 0.034	0.783 ± 0.038	0.75 ± 0.044	0.689 ± 0.043	0.678 ± 0.051	0.631 ± 0.052	0.599 ± 0.048	0.542 ± 0.046
100 µM, coculture fibroblast: HCPF	0.9257 ± 0.0047	0.832 ± 0.14	0.952 ± 0.035	0.9332 ± 0.0064	0.8577 ± 0.0028	0.8349 ± 0.0049	0.782 ± 0.016	0.767 ± 0.02	0.755 ± 0.03
100 µM, coculture fibroblast: HHSteC	0.877 ± 0.012	0.855 ± 0.019	0.815 ± 0.03	0.792 ± 0.028	0.758 ± 0.035	0.755 ± 0.027	0.704 ± 0.023	0.682 ± 0.013	0.635 ± 0.015
100 µM, coculture fibroblast: HMF	0.865 ± 0.032	0.946 ± 0.011	0.921 ± 0.05	0.89 ± 0.055	0.812 ± 0.037	0.79 ± 0.043	0.738 ± 0.044	0.72 ± 0.046	0.692 ± 0.058
100 µM, coculture fibroblast: HPFa	0.9421 ± 0.007	0.8841 ± 0.0084	0.853 ± 0.028	0.803 ± 0.014	0.763 ± 0.013	0.75921 ± 0.00035	0.6954 ± 0.0059	0.67162 ± 0.00043	0.594 ± 0.011
100 µM, coculture fibroblast: HUF	0.901 ± 0.019	0.8328 ± 0.0054	0.79804 ± 0.00065	0.758 ± 0.011	0.715 ± 0.021	0.698 ± 0.032	0.65 ± 0.025	0.636 ± 0.03	0.612 ± 0.027
100 µM, coculture fibroblast: Hs5	0.941 ± 0.033	0.88616 ± 0.00088	0.868 ± 0.049	0.854 ± 0.08	0.784 ± 0.091	0.762 ± 0.1	0.746 ± 0.13	0.719 ± 0.14	0.751 ± 0.17
100 µM, coculture fibroblast: Hs27A	0.8647 ± 0.002	0.835 ± 0.021	0.773 ± 0.025	0.774 ± 0.033	0.715 ± 0.018	0.7 ± 0.022	0.659 ± 0.022	0.639 ± 0.018	0.596 ± 0.0083
100 µM, coculture fibroblast: Hs343T	0.9233 ± 0.0078	0.87 ± 0.17	0.917 ± 0.086	0.969 ± 0.0046	0.8801 ± 0.00027	0.8633 ± 0.0037	0.839 ± 0.016	0.829 ± 0.022	0.812 ± 0.017
100 µM, coculture fibroblast: WS1	0.858 ± 0.034	0.838 ± 0.009	0.8 ± 0.015	0.748 ± 0.032	0.716 ± 0.048	0.696 ± 0.054	0.668 ± 0.066	0.65 ± 0.091	0.637 ± 0.089

± gives the standard deviation of the averaged measurements. The reference is the same well before dosing, and untreated signal decays as well.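 Fibroblast labels name human fibroblasts: mostly primary ones from tissues such as uterus (C12385, HUF), lung (H6013), bone (Hs27A), adrenal (HADF) and skin (WS1), plus mammary HMF and breast cancer-associated Hs343T. The cancer cells are basal-like or mesenchymal-like triple-negative breast cancer lines. The paper calls a changed response a hit when it shifts by more than 3x the replicate standard deviation. The tissue of the other fibroblasts is not given here.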
